Assay [1] concerns the target dominant negative STAT3 (STAT3D, Y705F) (UniProt P40763). The assay can be described thus: co-IP; OVOL2 with STAT3-WT, STAT3C or STAT3D from plasmids; whole-cell lysates immunoprecipitated with an anti-Flag antibody; Western blot. (In general: A western blot detects proteins with antibodies after separation by electrophoresis.)
Assay [2] concerns the target constitutively active STAT3 (STAT3C, A662C N664C) (UniProt P40763). Described as above.
Assay [3] addresses STAT3 WT, expressed from a plasmid (UniProt P40763). The description is as above.
Assay [4] deals with signal transducer and activator of transcription 3 (STAT3), endogenous in MCF7 cells (human (endogenous in MCF7)) (UniProt P40763). The assay can be described thus: co-IP; endogenous proteins; MCF7 lysates immunoprecipitated with an anti-STAT3 antibody and protein A/G beads, 4 °C overnight; lysis buffer 150 mM NaCl, 20 mM Tris-HCl, 1 mM EDTA, 1 mM EGTA, 1% Triton X-100; Western blot.

The chains behind the UniProt entries cited, without tags or fusion partners. Where a name states a change or a piece, a line headed by the entry shows the natural chain unless it says otherwise.
UniProt P40763: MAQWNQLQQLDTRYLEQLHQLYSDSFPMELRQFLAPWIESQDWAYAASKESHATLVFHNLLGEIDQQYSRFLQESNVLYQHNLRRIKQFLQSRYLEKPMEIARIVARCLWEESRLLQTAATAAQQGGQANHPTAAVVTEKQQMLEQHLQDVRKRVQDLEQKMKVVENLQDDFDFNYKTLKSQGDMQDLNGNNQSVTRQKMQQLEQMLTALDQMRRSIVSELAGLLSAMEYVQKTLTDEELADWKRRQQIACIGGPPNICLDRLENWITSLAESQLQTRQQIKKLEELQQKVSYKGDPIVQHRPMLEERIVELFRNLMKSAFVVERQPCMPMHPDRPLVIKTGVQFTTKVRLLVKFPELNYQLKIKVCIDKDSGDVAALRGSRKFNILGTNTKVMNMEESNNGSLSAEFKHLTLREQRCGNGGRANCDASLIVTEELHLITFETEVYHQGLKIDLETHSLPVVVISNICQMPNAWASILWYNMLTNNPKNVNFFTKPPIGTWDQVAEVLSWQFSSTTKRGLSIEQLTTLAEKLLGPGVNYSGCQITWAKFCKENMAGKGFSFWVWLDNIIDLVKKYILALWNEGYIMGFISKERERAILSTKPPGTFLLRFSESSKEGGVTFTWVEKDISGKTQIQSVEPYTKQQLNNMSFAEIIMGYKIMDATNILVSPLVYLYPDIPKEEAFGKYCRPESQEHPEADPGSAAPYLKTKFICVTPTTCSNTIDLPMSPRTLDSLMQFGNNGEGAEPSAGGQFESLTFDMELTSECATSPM
UniProt Q9BRP0: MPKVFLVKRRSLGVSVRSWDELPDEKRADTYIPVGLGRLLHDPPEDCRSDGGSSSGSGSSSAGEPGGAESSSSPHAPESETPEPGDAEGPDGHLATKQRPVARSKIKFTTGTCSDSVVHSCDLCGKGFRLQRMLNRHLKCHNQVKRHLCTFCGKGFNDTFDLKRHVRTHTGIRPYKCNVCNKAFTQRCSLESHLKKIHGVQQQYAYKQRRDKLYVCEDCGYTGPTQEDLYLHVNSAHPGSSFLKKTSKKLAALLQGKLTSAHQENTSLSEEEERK

Results are given in words; binding and its absence hold for the method and conditions named. In cells and extracts the contact can be indirect. Some entries that bind do so weakly or less than the wild type.

For “OVOL2, expressed from a plasmid for the co-IP with STAT3 variants (from UniProt Q9BRP0 1-275)”, the binding entry in assay [1] is listed as “no binding”; in assay [2] it was “binds”; in assay [3], “binds”.

Take “ovo‐like 2 (OVOL2), endogenous in MCF7 cells (from UniProt Q9BRP0 1-275)”: the binding entry in assay [4] was “binds”.

(Values after paper PMC11199980.)
